Source: paper PMC8007834, “Anti-estrogenic and anti-aromatase activities of citrus peels major compounds in breast cancer” (Scientific Reports, 2021)

Target: T1, Aromatase enzyme (CYP19) (Homo sapiens, UniProt P11511)
T1 construct: purchased BD Biosciences, San Jose, CA
T1 sequence (P11511 1-503): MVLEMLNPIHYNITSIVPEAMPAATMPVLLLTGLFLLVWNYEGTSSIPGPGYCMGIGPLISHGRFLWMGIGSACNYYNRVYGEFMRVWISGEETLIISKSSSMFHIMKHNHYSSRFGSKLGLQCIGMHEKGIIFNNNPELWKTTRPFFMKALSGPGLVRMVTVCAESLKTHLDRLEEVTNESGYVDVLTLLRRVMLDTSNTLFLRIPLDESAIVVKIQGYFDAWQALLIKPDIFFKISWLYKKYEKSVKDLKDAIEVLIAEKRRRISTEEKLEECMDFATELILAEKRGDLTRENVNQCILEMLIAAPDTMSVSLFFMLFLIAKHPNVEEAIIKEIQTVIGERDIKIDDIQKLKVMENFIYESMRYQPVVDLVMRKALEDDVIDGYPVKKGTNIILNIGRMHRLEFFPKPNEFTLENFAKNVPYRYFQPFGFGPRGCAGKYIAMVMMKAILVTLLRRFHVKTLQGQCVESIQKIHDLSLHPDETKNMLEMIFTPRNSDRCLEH
Experiment: In vitro aromatase inhibition assay (dibenzylfluorescein)
Type: biochemical
Settings: ± SD

Q: How did the IC50 turn out when O=c1c(O)c(-c2ccc(O)c(O)c2)oc2cc(O)cc(O)c12 [C2, 5,7,3′,4′-tetrahydroxy flavonol] was run?
A: The IC50 was 761 nM.
